Data reported in article PMC4550094 (Journal of biomolecular screening, 2013).

Tested on: HepG2 cells
Assay: CellTiter-Glo cell viability assay
Format: cell-based, Human
Details: for Cell Viability Efficacy (maximum inhibition of cell viability): HepG2, 24 h treatment, mean ± SD of three experiments

IC50 (Homo sapiens, HepG2, 24 h, read-out: Cell Viability IC50): 8.9 ± 12.5 µM
Structure (SMILES): O=C(CCCN1CCC2(CC1)C(=O)NCN2c1ccccc1)c1ccc(F)cc1 [Spiperone]
Cell Viability Efficacy (maximum inhibition of cell viability): 83.5±7.3%
Cell Viability Efficacy (maximum inhibition of cell viability) (listed as spiperone): 83%
